Measurements reported in the supplement of paper PMC10849652.
Some of the results follow.

Sequences of proteins named here, by UniProt entry; tags and fusion partners are left off. A change or cut given only in a name is not applied to a line headed by its entry.
UniProt O14717: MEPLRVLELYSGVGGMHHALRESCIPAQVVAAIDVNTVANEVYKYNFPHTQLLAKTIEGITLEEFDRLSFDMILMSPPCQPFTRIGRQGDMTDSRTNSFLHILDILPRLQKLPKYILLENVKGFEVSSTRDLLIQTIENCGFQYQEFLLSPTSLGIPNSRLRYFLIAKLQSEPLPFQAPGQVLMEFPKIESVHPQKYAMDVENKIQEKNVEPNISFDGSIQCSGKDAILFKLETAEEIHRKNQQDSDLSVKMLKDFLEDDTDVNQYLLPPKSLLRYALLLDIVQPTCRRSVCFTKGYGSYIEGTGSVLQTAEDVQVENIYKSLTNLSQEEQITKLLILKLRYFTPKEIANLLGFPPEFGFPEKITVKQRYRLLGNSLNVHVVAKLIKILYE
UniProt Q99576: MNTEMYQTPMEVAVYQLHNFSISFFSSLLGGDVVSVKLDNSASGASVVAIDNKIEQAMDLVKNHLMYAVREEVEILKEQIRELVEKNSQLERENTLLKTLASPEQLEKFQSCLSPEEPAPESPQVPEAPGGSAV
UniProt Q8N831: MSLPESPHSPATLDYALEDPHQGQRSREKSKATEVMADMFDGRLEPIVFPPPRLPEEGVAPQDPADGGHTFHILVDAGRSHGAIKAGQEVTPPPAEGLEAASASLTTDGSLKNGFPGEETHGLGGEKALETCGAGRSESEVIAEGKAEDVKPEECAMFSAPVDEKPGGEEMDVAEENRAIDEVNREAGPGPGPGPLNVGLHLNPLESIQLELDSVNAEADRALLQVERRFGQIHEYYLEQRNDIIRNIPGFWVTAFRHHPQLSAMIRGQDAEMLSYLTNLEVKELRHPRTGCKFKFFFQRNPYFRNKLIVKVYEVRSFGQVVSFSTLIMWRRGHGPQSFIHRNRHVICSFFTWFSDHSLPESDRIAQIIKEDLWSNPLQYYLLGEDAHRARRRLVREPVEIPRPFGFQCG
UniProt Q9H0U9: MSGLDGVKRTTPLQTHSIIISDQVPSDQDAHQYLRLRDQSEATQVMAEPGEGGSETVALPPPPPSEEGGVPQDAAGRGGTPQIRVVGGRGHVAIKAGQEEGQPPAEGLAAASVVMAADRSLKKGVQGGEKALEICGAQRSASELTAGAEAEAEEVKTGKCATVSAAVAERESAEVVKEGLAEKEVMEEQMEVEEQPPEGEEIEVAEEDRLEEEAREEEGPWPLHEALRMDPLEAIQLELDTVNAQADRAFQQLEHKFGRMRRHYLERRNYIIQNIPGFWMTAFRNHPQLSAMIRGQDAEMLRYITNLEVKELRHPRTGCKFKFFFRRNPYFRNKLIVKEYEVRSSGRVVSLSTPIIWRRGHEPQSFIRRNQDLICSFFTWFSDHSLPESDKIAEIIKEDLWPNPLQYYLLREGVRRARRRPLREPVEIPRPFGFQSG
UniProt Q9H2G4: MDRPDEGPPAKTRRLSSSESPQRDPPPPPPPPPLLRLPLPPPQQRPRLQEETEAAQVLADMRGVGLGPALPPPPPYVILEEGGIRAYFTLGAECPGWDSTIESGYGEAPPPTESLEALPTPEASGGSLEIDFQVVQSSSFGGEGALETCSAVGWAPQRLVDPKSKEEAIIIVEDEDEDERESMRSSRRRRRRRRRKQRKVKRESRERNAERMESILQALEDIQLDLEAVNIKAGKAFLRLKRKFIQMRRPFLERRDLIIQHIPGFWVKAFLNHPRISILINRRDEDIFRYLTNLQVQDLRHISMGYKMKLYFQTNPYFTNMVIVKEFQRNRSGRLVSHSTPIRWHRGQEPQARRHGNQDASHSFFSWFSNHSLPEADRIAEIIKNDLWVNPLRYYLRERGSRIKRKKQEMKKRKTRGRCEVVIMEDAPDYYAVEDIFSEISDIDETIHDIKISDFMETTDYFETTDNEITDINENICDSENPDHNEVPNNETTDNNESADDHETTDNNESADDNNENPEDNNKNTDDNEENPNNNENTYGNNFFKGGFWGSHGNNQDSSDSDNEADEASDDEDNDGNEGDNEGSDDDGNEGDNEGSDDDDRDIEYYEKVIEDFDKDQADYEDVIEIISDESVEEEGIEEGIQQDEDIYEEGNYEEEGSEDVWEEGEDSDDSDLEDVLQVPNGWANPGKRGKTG
UniProt Q6ZTA4: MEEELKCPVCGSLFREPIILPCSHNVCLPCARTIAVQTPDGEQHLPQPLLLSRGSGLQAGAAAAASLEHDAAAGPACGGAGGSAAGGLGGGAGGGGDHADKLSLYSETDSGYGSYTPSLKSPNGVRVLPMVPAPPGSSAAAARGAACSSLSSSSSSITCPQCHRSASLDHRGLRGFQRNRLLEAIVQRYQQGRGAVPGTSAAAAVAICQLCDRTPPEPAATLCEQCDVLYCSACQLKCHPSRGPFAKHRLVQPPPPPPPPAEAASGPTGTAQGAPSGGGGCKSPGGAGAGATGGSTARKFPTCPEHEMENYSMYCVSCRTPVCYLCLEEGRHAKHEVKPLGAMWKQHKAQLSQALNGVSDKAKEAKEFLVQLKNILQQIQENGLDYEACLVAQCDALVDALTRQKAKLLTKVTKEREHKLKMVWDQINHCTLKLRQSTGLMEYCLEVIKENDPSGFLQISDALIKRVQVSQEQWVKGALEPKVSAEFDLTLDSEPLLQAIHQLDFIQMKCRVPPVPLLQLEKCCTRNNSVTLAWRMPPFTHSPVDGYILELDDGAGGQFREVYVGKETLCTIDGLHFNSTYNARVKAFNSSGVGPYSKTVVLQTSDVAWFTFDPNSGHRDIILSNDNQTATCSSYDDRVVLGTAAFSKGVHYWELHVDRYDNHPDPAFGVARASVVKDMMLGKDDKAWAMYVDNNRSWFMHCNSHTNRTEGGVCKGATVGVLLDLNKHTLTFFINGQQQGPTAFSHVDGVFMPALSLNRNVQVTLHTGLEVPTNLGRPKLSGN
UniProt O43715: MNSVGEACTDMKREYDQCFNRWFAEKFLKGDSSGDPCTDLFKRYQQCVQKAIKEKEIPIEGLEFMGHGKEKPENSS
UniProt Q12999: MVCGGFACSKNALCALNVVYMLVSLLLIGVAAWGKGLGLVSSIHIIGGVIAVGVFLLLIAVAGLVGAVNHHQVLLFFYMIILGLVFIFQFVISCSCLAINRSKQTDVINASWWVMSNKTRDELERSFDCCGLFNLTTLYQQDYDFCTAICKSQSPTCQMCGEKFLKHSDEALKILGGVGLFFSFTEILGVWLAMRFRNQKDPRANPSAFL
UniProt Q629K1: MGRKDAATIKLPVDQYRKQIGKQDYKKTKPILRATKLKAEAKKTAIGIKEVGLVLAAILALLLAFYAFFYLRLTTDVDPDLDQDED
UniProt Q9UJT2: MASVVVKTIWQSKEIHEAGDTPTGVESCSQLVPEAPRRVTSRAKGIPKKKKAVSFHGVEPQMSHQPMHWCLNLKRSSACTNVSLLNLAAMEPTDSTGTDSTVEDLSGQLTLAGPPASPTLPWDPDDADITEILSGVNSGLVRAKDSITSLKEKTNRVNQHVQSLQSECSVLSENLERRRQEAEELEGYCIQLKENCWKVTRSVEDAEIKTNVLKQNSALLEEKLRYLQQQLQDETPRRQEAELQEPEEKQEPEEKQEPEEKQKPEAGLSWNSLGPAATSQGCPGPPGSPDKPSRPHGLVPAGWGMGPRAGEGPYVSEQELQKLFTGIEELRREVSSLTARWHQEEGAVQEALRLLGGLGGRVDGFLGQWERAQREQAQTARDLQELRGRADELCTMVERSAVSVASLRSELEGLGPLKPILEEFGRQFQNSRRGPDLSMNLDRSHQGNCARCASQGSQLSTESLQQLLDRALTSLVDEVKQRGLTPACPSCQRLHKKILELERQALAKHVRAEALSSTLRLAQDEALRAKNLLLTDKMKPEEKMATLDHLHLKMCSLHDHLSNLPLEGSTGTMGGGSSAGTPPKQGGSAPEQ
UniProt O00463: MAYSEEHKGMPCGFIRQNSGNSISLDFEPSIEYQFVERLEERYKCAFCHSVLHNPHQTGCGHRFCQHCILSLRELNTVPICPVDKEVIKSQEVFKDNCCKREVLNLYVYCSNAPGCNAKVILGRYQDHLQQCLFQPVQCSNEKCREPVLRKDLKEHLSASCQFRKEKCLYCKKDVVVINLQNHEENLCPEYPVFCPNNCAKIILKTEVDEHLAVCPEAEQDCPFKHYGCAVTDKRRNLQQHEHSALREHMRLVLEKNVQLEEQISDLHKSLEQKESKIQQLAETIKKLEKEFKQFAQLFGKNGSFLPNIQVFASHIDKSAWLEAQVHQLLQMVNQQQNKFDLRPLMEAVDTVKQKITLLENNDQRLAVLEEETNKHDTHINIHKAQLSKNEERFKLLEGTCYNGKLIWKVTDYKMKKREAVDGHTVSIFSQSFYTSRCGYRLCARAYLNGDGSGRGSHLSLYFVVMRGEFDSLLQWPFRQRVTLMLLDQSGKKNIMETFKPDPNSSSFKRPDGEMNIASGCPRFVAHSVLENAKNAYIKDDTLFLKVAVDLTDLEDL
UniProt Q6AZZ1: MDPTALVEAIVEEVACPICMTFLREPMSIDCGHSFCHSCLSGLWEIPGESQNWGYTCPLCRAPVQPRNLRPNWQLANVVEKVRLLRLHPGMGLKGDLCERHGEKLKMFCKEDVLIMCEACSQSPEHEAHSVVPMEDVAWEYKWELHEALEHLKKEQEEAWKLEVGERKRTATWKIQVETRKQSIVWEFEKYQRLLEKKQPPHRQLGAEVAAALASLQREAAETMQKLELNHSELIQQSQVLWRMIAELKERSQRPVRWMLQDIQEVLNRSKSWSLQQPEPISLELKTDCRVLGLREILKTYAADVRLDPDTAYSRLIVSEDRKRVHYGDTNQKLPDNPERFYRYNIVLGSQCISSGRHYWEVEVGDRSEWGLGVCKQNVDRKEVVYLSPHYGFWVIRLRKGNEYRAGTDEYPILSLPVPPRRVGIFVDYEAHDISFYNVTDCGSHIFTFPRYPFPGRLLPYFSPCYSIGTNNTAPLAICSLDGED
UniProt Q9UHF7: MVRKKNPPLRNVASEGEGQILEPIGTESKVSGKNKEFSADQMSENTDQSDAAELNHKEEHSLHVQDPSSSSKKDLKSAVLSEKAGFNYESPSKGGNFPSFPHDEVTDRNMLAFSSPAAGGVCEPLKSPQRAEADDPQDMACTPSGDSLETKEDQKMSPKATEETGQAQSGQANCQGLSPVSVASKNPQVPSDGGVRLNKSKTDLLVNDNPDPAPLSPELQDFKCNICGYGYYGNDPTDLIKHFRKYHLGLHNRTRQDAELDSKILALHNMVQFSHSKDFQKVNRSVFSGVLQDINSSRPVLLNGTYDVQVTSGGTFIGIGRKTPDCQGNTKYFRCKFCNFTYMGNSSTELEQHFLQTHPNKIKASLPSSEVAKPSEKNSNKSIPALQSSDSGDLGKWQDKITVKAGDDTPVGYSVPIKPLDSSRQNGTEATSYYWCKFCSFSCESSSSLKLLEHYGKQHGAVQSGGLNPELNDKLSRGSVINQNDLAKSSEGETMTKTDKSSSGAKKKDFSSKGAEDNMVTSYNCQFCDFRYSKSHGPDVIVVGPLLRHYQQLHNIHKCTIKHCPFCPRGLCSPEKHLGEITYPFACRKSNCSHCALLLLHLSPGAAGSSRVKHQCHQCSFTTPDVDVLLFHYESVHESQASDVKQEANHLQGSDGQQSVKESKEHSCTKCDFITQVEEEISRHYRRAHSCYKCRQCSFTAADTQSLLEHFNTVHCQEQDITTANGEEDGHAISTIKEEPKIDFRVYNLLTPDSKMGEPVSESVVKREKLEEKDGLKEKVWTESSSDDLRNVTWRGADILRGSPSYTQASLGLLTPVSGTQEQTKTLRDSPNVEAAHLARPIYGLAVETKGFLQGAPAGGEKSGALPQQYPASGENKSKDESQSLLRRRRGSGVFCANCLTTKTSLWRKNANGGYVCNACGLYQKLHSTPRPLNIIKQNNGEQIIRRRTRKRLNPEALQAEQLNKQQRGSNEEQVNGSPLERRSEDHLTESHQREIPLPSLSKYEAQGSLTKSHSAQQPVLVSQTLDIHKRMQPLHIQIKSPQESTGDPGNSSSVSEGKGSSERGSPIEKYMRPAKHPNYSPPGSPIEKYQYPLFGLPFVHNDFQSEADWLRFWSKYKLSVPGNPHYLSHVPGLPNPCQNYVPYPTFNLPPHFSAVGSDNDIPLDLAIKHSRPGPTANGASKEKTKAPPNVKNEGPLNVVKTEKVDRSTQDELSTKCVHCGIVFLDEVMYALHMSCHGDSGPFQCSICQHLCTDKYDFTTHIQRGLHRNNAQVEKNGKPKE
UniProt Q15035: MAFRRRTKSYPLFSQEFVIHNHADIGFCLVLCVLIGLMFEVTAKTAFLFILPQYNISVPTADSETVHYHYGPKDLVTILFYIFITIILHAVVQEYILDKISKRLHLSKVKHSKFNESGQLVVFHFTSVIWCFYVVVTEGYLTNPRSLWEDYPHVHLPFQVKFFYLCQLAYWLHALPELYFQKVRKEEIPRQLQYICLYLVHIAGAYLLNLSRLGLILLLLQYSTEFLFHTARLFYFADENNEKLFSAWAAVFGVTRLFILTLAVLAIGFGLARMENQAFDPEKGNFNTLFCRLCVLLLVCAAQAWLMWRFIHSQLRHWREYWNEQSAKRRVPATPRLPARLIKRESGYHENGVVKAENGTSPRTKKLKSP

Key:
Experiment in all cases: log2 fold change, soluble protein after heating vs DMSO (PISA); higher = thermal stabilisation; K562 lysate, 10 uM; active = over 0.2 and 3.5 SD of the protein, either way, in both replicates (recomputed)
[1] = compound: C1=CC=C(C=C1)C2=NC(=C(N2)C3=CC=NC=C3)C4=CC(=C(C=C4)Cl)O
In short: (§1)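 Thermal stability, expressed as log-two fold change relative to solvent controls, is given from duplicates. Crude K562 extract in PBS pH 7.4 with 1 mM MgCl2, at 1 mg/mL protein, was treated with 10 μM compound for 30 min and heated in aliquots for 3 min across 48°C-58°C. After pooling, adjustment to 0.5% NP-40 at 4°C and centrifugation at 21,000xg for 90 min, supernatant protein was measured by TMTpro 16plex LC-MS/MS with channel sums equalised.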

IRAK-1-4 Inhibitor I = compound: C1COCCN1CCN2C3=CC=CC=C3N=C2NC(=O)C4=CC(=CC=C4)[N+](=O)[O-] [IRAK-1-4 Inhibitor I]
In short: as §1

erlotinib = compound: C#Cc1cccc(Nc2ncnc3cc(OCCOC)c(OCCOC)cc23)c1 [erlotinib]
In short: as §1

[2] = compound: C1=CC(=CC=C1C2=NC3=C(N2)C=C(C=C3)C(=O)N)OC4=CC=C(C=C4)Cl
In short: as §1

[3] = compound: C/C(=N\NC(=O)C1=CC(=CC=C1)S(=O)(=O)N2CCOCC2)/C3=C(C=CC(=C3)Cl)O
In short: as §1

[4] = compound: C1=CC2=C(C=CC(=C2)/C=C\3/C(=O)NC(=NCC4=CC=CS4)S3)N=C1
In short: as §1

[5] = compound: C1=CC=C2C(=C1)C3=NNC4=CC=CC(=C43)C2=O
In short: as §1

[6] = compound: C1CCN(C1)C(=O)NC2=CC=CC(=C2)NC3=NC=C(C(=N3)NCCC4=CN=CN4)Br
In short: as §1

[7] = compound: C1CN(CCC1(CC2=CC=C(C=C2)Cl)N)C3=NC=NC4=C3C=CN4
In short: as §1

[8] = compound: C1=CC2=NC=CN=C2C=C1/C=C/3\C(=O)NC(=O)S3
In short: as §1

Measured: log2 fold change

TRAF1 (UniProt Q13077)
inactive: [1] -0.058 | IRAK-1-4 Inhibitor I 0.593

TTC3 (UniProt P53804)
inactive: erlotinib 0.029 | [2] -0.007 | [1] 0.093 | IRAK-1-4 Inhibitor I -0.043

TRDMT1 (UniProt O14717)
inactive: erlotinib -0.106 | [3] 0.059 | [2] -0.107 | [4] 0.009 | [1] -0.139 | [5] -0.148 | [6] -0.01 | [7] -0.023 | IRAK-1-4 Inhibitor I -0.136

TSC22D3 isoform 3 (UniProt Q99576)
inactive: erlotinib -0.025 | [2] -0.03 | [1] 0.122 | IRAK-1-4 Inhibitor I 0.155

Pulled one by one from the list above (2):
TTC3 (UniProt P53804)
inactive: erlotinib 0.029 | [2] -0.007 | [1] 0.093 | IRAK-1-4 Inhibitor I -0.043

TRAF1 (UniProt Q13077)
inactive: [1] -0.058 | IRAK-1-4 Inhibitor I 0.593

Additional results follow:

TSPYL6 (UniProt Q8N831)
inactive: erlotinib 0.114 | [2] -0.034 | [1] 0.15 | IRAK-1-4 Inhibitor I -0.063

TRIM47 (UniProt Q96LD4)
inactive: erlotinib 0.076 | [3] -0.178 | [2] -0.024 | [4] 0 | [5] -0.013 | [6] -0.204 | [7] 0.111

TTLL4 (UniProt Q14679)
inactive: [1] 0.155 | IRAK-1-4 Inhibitor I 0.07

TRIM3 (UniProt O75382)
inactive: erlotinib 0.129 | [3] 0.2 | [4] 0.098 | [5] 0.012 | [6] 0 | [7] -0.265
active: [2] -0.909

TRMT10B (UniProt Q6PF06)
inactive: [1] 0.027 | IRAK-1-4 Inhibitor I 0.08

TSPYL1 (UniProt Q9H0U9)
inactive: erlotinib 0.039 | [2] 0 | [8] -0.041 | [1] 0.093 | IRAK-1-4 Inhibitor I 0.028

TRPM7 (UniProt Q96QT4)
inactive: [3] -0.137 | [4] 0.091 | [1] 0.073 | [5] -0.008 | [6] -0.1 | [7] 0.005 | IRAK-1-4 Inhibitor I -0.097

TTF1 (UniProt Q15361)
inactive: [6] -0.056 | [7] 0.101

TRAPPC2L (UniProt H3BQQ8)
inactive: [8] -0.068

TSPYL2 (UniProt Q9H2G4)
inactive: erlotinib 0.132 | [2] 0.037 | [6] -0.278 | [7] 0.038

TTC13 (UniProt Q8NBP0)
inactive: [3] 0.122 | [4] -0.044 | [8] -0.036 | [1] -0.103 | [5] -0.118 | IRAK-1-4 Inhibitor I 0.176

TRIM67 (UniProt Q6ZTA4)
inactive: erlotinib -0.019 | [2] 0.034 | [1] 0.032 | [6] -0.201 | [7] 0.054 | IRAK-1-4 Inhibitor I -0.021

TRIAP1 (UniProt O43715)
inactive: erlotinib 0.194 | [3] 0.007 | [2] 0.036 | [4] 0.067 | [1] -0.014 | [5] 0.051 | [6] 0.05 | [7] 0.133 | IRAK-1-4 Inhibitor I -0.101

TRPM4 (UniProt Q8TD43)
inactive: erlotinib 0.018 | [2] 0.164 | [8] -0.094 | [1] 0.004 | IRAK-1-4 Inhibitor I -0.152

TSPAN31 (UniProt Q12999)
inactive: [3] 0.007 | [4] -0.057 | [5] -0.004

TRIQK (UniProt Q629K1)
inactive: erlotinib -0.038 | [2] -0.044 | [8] -0.002 | [1] -0.043 | [6] 0.394 | [7] -0.001 | IRAK-1-4 Inhibitor I 0.015

TRAF3IP2 (UniProt O43734)
inactive: erlotinib 0.095 | [3] 0.024 | [2] 0.087 | [4] 0.182 | [1] 0.038 | [5] 0.203 | IRAK-1-4 Inhibitor I -0.089

TTC26
inactive: [1] -0.159 | [6] 0.099 | [7] 0.213 | IRAK-1-4 Inhibitor I -0.155

TSKS (UniProt Q9UJT2)
inactive: erlotinib 0.025 | [3] -0.056 | [2] 0.021 | [4] -0.046 | [1] 0.028 | [5] 0.083 | [6] -0.15 | [7] 0.094 | IRAK-1-4 Inhibitor I 0.134

TSEN15, A0A2U3TZM3
inactive: [3] -0.383 | [4] -0.388 | [1] -0.021 | [5] 0.035 | IRAK-1-4 Inhibitor I -0.007

TRIM26 (UniProt Q12899)
inactive: [1] -0.114 | IRAK-1-4 Inhibitor I 0.145

TRAF5 isoform 2 (UniProt O00463)
inactive: erlotinib 0.092 | [2] 0.127 | [1] 0.122 | [6] 0.106 | [7] -0.029 | IRAK-1-4 Inhibitor I 0.177

TTBK2 (UniProt Q6IQ55)
inactive: erlotinib 0.124 | [2] -0.166 | [6] -0.153 | [7] 0.06

TTC30B (UniProt Q8N4P2)
inactive: [3] -0.289 | [4] 0.006 | [5] -0.157 | [6] -0.158 | [7] -0.02

TRIM68 (UniProt Q6AZZ1)
inactive: erlotinib 0.065 | [2] -0.026 | [6] -0.272 | [7] -0.055

TRIM16 (UniProt O95361)
inactive: erlotinib 0.033 | [2] 0.035 | [6] -0.028 | [7] -0.231

TRIB3 (UniProt Q96RU7)
inactive: erlotinib -0.236 | [2] 0.048 | [6] -0.112 | [7] 0.065

TRMT2B (UniProt Q96GJ1)
inactive: erlotinib -0.036 | [2] -0.037 | [8] -0.063 | [1] -0.053 | IRAK-1-4 Inhibitor I -0.01

TRUB2 (UniProt O95900)
inactive: erlotinib -0.022 | [3] -0.147 | [2] -0.009 | [4] -0.089 | [1] -0.029 | [5] -0.236 | [6] -0.123 | [7] 0.018 | IRAK-1-4 Inhibitor I 0.088

TRIM41 (UniProt Q8WV44)
inactive: [3] 0.053 | [4] -0.09 | [5] 0.056 | [6] -0.045 | [7] -0.072

TRMO (UniProt Q9BU70)
inactive: [3] 0.052 | [4] 0.049 | [8] -0.01 | [5] -0.112 | [6] -0.071 | [7] -0.172

TRPS1 isoform 2 (UniProt Q9UHF7)
inactive: erlotinib -0.001 | [2] -0.074

TRAM2 (UniProt Q15035)
inactive: [1] -0.074 | IRAK-1-4 Inhibitor I -0.015

TRIM37 (UniProt O94972)
inactive: erlotinib 0.138 | [2] -0.062 | [1] -0.017 | [6] 0.017 | [7] 0.069 | IRAK-1-4 Inhibitor I 0.158

TSC22D1 isoform 2 (UniProt Q15714)
inactive: [1] 0.073 | [6] -0.481 | [7] 0.249 | IRAK-1-4 Inhibitor I -0.039
